{
  "sequences": {"note": "Sequences of proteins named here, by UniProt entry; tags and fusion partners are left off. A change or cut given only in a name is not applied to a line headed by its entry.", "UniProt Q9Y603": "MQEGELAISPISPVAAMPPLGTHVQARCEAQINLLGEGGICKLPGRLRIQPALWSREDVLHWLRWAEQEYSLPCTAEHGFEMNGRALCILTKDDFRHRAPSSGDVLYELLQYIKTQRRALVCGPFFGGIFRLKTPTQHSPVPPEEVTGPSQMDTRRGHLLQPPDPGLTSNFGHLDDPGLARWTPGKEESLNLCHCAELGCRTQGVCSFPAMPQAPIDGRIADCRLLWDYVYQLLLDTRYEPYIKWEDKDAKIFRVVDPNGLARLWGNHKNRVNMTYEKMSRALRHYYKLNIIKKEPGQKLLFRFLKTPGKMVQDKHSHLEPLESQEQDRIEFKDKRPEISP", "UniProt P41212": "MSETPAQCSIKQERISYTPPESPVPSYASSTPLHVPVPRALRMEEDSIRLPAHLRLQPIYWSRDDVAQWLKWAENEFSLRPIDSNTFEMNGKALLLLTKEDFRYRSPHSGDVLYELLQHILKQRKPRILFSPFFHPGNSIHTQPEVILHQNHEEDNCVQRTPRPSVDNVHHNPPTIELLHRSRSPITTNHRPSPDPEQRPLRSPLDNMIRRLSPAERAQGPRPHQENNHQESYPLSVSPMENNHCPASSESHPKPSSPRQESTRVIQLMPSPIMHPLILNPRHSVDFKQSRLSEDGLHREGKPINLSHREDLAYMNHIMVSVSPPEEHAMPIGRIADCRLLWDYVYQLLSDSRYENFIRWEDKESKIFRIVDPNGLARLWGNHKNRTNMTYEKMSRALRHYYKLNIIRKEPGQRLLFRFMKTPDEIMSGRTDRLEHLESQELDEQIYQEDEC"},
  "source": "paper PMC7862700",
  "note": "The list shows a part of the results, in another mix than the full data. At the low end of the ranking, values are background and their order means little.",
  "data": [
    {"molecular_target": "T1, ELF3 (UniProt P78545)", "T1 sequence": "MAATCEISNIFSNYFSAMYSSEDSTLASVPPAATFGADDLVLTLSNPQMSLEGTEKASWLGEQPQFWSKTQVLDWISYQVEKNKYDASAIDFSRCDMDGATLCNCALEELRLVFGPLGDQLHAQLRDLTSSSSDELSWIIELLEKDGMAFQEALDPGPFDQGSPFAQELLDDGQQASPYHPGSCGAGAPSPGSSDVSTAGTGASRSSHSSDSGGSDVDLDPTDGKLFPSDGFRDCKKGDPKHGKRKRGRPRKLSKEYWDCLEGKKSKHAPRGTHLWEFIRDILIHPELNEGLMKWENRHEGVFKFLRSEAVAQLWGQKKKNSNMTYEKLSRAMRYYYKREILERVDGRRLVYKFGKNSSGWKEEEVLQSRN", "test": "DAPPL (digital affinity profiling via proximity ligation, sequencing)", "conditions": "10 mM Tris-HCl pH 7.5, 50 mM NaCl, 1 mM DTT, 4% glycerol, room temperature, 30 min; GST-TFs on glutathione beads, 16-mer random dsDNA library, 0.1% …; high values mean tight binding; double strand, one strand shown; scale: fold enrichment (6-mer frequency, TF over GST control)", "values": [
      {"sequence": "GCACCA", "binding signal": 0.909},
      {"sequence": "CGTCGT", "binding signal": 0.818},
      {"sequence": "AAAGAG", "binding signal": 0.94},
      {"sequence": "GTAGCC", "binding signal": 1.06},
      {"sequence": "CGAGTC", "binding signal": 0.461},
      {"sequence": "CCGAGT", "binding signal": 0.958},
      {"sequence": "CGGACG", "binding signal": 0.4},
      {"sequence": "CGGAGC", "binding signal": 0.399},
      {"sequence": "TGTGTC", "binding signal": 0.763},
      {"sequence": "GAGTCT", "binding signal": 0.379},
      {"sequence": "GACCCG", "binding signal": 0.753},
      {"sequence": "GGACGC", "binding signal": 0.355},
      {"sequence": "CGGCCG", "binding signal": 0.936},
      {"sequence": "GGTCCG", "binding signal": 0.67},
      {"sequence": "AGAGAG", "binding signal": 0.605},
      {"sequence": "CGTGTG", "binding signal": 0.431},
      {"sequence": "CCATGT", "binding signal": 0.7},
      {"sequence": "GCAGGC", "binding signal": 0.644},
      {"sequence": "AGGACG", "binding signal": 0.457},
      {"sequence": "GGTAGT", "binding signal": 0.746},
      {"sequence": "GTCGCC", "binding signal": 0.88},
      {"sequence": "CAGTAA", "binding signal": 0.789},
      {"sequence": "GCGTAG", "binding signal": 0.822},
      {"sequence": "AGCAAG", "binding signal": 0.951},
      {"sequence": "GCCGGT", "binding signal": 0.753},
      {"sequence": "AGGATC", "binding signal": 0.888},
      {"sequence": "GAATCG", "binding signal": 0.614},
      {"sequence": "CAAGGG", "binding signal": 0.87},
      {"sequence": "GGCATG", "binding signal": 0.904},
      {"sequence": "AGCCGC", "binding signal": 0.925},
      {"sequence": "ACCGGG", "binding signal": 0.458},
      {"sequence": "GGCCCG", "binding signal": 0.811},
      {"sequence": "GTAAGA", "binding signal": 0.851},
      {"sequence": "ACGAGA", "binding signal": 0.679},
      {"sequence": "GGTGCC", "binding signal": 0.746},
      {"sequence": "CTGTCG", "binding signal": 0.578},
      {"sequence": "AGGCGA", "binding signal": 0.502},
      {"sequence": "AGACCC", "binding signal": 0.721}
    ]},
    {"molecular_target": "ETV7 (UniProt Q9Y603)", "test": "DAPPL (digital affinity profiling via proximity ligation, sequencing)", "conditions": "10 mM Tris-HCl pH 7.5, 50 mM NaCl, 1 mM DTT, 4% glycerol, room temperature, 30 min; GST-TFs on glutathione beads, 16-mer random dsDNA library, 0.1% …; high values mean tight binding; double strand, one strand shown; scale: fold enrichment (6-mer frequency, TF over GST control)", "values": [
      {"sequence": "GCACCA", "binding signal": 0.831},
      {"sequence": "CGTCGT", "binding signal": 0.874},
      {"sequence": "AAAGAG", "binding signal": 0.946},
      {"sequence": "GTAGCC", "binding signal": 0.95},
      {"sequence": "CGAGTC", "binding signal": 0.543},
      {"sequence": "CCGAGT", "binding signal": 0.888},
      {"sequence": "CGGACG", "binding signal": 0.438},
      {"sequence": "CGGAGC", "binding signal": 0.488},
      {"sequence": "TGTGTC", "binding signal": 0.851},
      {"sequence": "GAGTCT", "binding signal": 0.461},
      {"sequence": "GACCCG", "binding signal": 0.844},
      {"sequence": "GGACGC", "binding signal": 0.373},
      {"sequence": "CGGCCG", "binding signal": 0.76},
      {"sequence": "GGTCCG", "binding signal": 0.761},
      {"sequence": "AGAGAG", "binding signal": 0.628},
      {"sequence": "CGTGTG", "binding signal": 0.427},
      {"sequence": "CCATGT", "binding signal": 0.748},
      {"sequence": "GCAGGC", "binding signal": 0.75},
      {"sequence": "AGGACG", "binding signal": 0.463},
      {"sequence": "GGTAGT", "binding signal": 0.844},
      {"sequence": "GTCGCC", "binding signal": 0.792},
      {"sequence": "CAGTAA", "binding signal": 0.79},
      {"sequence": "GCGTAG", "binding signal": 0.746},
      {"sequence": "AGCAAG", "binding signal": 0.982},
      {"sequence": "GCCGGT", "binding signal": 0.733},
      {"sequence": "AGGATC", "binding signal": 0.87},
      {"sequence": "GAATCG", "binding signal": 0.666},
      {"sequence": "CAAGGG", "binding signal": 0.977},
      {"sequence": "GGCATG", "binding signal": 0.878},
      {"sequence": "AGCCGC", "binding signal": 0.982},
      {"sequence": "ACCGGG", "binding signal": 0.545},
      {"sequence": "GGCCCG", "binding signal": 0.797},
      {"sequence": "GTAAGA", "binding signal": 0.781},
      {"sequence": "ACGAGA", "binding signal": 0.701},
      {"sequence": "GGTGCC", "binding signal": 0.698},
      {"sequence": "CTGTCG", "binding signal": 0.662},
      {"sequence": "AGGCGA", "binding signal": 0.549},
      {"sequence": "AGACCC", "binding signal": 0.621}
    ]},
    {"molecular_target": "ETV6 (UniProt P41212)", "test": "DAPPL (digital affinity profiling via proximity ligation, sequencing)", "conditions": "10 mM Tris-HCl pH 7.5, 50 mM NaCl, 1 mM DTT, 4% glycerol, room temperature, 30 min; GST-TFs on glutathione beads, 16-mer random dsDNA library, 0.1% …; high values mean tight binding; double strand, one strand shown; scale: fold enrichment (6-mer frequency, TF over GST control)", "values": [
      {"sequence": "GCACCA", "binding signal": 0.878},
      {"sequence": "CGTCGT", "binding signal": 0.905},
      {"sequence": "AAAGAG", "binding signal": 0.959},
      {"sequence": "GTAGCC", "binding signal": 0.897},
      {"sequence": "CGAGTC", "binding signal": 0.488},
      {"sequence": "CCGAGT", "binding signal": 0.933},
      {"sequence": "CGGACG", "binding signal": 0.45},
      {"sequence": "CGGAGC", "binding signal": 0.384},
      {"sequence": "TGTGTC", "binding signal": 0.777},
      {"sequence": "GAGTCT", "binding signal": 0.432},
      {"sequence": "GACCCG", "binding signal": 0.861},
      {"sequence": "GGACGC", "binding signal": 0.367},
      {"sequence": "CGGCCG", "binding signal": 0.807},
      {"sequence": "GGTCCG", "binding signal": 0.772},
      {"sequence": "AGAGAG", "binding signal": 0.529},
      {"sequence": "CGTGTG", "binding signal": 0.407},
      {"sequence": "CCATGT", "binding signal": 0.851},
      {"sequence": "GCAGGC", "binding signal": 0.734},
      {"sequence": "AGGACG", "binding signal": 0.496},
      {"sequence": "GGTAGT", "binding signal": 0.811},
      {"sequence": "GTCGCC", "binding signal": 0.846},
      {"sequence": "CAGTAA", "binding signal": 0.744},
      {"sequence": "GCGTAG", "binding signal": 0.845},
      {"sequence": "AGCAAG", "binding signal": 0.818},
      {"sequence": "GCCGGT", "binding signal": 0.706},
      {"sequence": "AGGATC", "binding signal": 0.873},
      {"sequence": "GAATCG", "binding signal": 0.651},
      {"sequence": "CAAGGG", "binding signal": 0.878},
      {"sequence": "GGCATG", "binding signal": 0.803},
      {"sequence": "AGCCGC", "binding signal": 0.826},
      {"sequence": "ACCGGG", "binding signal": 0.524},
      {"sequence": "GGCCCG", "binding signal": 0.793},
      {"sequence": "GTAAGA", "binding signal": 0.792},
      {"sequence": "ACGAGA", "binding signal": 0.701},
      {"sequence": "GGTGCC", "binding signal": 0.739},
      {"sequence": "CTGTCG", "binding signal": 0.585},
      {"sequence": "AGGCGA", "binding signal": 0.48},
      {"sequence": "AGACCC", "binding signal": 0.767}
    ]}
  ]
}
